# According to article PMC5063997, “Engineered Tissue Inhibitor of Metalloproteinases-3 Variants Resistant to Endocytosis Have Prolonged Chondroprotective Activity*” (The Journal of Biological Chemistry, 2016):
# Protein sequences, listed by entry. Tags and fused reporters are not part of them. Residues count along the entry.
# UniProt Q07954, residues 20-4544: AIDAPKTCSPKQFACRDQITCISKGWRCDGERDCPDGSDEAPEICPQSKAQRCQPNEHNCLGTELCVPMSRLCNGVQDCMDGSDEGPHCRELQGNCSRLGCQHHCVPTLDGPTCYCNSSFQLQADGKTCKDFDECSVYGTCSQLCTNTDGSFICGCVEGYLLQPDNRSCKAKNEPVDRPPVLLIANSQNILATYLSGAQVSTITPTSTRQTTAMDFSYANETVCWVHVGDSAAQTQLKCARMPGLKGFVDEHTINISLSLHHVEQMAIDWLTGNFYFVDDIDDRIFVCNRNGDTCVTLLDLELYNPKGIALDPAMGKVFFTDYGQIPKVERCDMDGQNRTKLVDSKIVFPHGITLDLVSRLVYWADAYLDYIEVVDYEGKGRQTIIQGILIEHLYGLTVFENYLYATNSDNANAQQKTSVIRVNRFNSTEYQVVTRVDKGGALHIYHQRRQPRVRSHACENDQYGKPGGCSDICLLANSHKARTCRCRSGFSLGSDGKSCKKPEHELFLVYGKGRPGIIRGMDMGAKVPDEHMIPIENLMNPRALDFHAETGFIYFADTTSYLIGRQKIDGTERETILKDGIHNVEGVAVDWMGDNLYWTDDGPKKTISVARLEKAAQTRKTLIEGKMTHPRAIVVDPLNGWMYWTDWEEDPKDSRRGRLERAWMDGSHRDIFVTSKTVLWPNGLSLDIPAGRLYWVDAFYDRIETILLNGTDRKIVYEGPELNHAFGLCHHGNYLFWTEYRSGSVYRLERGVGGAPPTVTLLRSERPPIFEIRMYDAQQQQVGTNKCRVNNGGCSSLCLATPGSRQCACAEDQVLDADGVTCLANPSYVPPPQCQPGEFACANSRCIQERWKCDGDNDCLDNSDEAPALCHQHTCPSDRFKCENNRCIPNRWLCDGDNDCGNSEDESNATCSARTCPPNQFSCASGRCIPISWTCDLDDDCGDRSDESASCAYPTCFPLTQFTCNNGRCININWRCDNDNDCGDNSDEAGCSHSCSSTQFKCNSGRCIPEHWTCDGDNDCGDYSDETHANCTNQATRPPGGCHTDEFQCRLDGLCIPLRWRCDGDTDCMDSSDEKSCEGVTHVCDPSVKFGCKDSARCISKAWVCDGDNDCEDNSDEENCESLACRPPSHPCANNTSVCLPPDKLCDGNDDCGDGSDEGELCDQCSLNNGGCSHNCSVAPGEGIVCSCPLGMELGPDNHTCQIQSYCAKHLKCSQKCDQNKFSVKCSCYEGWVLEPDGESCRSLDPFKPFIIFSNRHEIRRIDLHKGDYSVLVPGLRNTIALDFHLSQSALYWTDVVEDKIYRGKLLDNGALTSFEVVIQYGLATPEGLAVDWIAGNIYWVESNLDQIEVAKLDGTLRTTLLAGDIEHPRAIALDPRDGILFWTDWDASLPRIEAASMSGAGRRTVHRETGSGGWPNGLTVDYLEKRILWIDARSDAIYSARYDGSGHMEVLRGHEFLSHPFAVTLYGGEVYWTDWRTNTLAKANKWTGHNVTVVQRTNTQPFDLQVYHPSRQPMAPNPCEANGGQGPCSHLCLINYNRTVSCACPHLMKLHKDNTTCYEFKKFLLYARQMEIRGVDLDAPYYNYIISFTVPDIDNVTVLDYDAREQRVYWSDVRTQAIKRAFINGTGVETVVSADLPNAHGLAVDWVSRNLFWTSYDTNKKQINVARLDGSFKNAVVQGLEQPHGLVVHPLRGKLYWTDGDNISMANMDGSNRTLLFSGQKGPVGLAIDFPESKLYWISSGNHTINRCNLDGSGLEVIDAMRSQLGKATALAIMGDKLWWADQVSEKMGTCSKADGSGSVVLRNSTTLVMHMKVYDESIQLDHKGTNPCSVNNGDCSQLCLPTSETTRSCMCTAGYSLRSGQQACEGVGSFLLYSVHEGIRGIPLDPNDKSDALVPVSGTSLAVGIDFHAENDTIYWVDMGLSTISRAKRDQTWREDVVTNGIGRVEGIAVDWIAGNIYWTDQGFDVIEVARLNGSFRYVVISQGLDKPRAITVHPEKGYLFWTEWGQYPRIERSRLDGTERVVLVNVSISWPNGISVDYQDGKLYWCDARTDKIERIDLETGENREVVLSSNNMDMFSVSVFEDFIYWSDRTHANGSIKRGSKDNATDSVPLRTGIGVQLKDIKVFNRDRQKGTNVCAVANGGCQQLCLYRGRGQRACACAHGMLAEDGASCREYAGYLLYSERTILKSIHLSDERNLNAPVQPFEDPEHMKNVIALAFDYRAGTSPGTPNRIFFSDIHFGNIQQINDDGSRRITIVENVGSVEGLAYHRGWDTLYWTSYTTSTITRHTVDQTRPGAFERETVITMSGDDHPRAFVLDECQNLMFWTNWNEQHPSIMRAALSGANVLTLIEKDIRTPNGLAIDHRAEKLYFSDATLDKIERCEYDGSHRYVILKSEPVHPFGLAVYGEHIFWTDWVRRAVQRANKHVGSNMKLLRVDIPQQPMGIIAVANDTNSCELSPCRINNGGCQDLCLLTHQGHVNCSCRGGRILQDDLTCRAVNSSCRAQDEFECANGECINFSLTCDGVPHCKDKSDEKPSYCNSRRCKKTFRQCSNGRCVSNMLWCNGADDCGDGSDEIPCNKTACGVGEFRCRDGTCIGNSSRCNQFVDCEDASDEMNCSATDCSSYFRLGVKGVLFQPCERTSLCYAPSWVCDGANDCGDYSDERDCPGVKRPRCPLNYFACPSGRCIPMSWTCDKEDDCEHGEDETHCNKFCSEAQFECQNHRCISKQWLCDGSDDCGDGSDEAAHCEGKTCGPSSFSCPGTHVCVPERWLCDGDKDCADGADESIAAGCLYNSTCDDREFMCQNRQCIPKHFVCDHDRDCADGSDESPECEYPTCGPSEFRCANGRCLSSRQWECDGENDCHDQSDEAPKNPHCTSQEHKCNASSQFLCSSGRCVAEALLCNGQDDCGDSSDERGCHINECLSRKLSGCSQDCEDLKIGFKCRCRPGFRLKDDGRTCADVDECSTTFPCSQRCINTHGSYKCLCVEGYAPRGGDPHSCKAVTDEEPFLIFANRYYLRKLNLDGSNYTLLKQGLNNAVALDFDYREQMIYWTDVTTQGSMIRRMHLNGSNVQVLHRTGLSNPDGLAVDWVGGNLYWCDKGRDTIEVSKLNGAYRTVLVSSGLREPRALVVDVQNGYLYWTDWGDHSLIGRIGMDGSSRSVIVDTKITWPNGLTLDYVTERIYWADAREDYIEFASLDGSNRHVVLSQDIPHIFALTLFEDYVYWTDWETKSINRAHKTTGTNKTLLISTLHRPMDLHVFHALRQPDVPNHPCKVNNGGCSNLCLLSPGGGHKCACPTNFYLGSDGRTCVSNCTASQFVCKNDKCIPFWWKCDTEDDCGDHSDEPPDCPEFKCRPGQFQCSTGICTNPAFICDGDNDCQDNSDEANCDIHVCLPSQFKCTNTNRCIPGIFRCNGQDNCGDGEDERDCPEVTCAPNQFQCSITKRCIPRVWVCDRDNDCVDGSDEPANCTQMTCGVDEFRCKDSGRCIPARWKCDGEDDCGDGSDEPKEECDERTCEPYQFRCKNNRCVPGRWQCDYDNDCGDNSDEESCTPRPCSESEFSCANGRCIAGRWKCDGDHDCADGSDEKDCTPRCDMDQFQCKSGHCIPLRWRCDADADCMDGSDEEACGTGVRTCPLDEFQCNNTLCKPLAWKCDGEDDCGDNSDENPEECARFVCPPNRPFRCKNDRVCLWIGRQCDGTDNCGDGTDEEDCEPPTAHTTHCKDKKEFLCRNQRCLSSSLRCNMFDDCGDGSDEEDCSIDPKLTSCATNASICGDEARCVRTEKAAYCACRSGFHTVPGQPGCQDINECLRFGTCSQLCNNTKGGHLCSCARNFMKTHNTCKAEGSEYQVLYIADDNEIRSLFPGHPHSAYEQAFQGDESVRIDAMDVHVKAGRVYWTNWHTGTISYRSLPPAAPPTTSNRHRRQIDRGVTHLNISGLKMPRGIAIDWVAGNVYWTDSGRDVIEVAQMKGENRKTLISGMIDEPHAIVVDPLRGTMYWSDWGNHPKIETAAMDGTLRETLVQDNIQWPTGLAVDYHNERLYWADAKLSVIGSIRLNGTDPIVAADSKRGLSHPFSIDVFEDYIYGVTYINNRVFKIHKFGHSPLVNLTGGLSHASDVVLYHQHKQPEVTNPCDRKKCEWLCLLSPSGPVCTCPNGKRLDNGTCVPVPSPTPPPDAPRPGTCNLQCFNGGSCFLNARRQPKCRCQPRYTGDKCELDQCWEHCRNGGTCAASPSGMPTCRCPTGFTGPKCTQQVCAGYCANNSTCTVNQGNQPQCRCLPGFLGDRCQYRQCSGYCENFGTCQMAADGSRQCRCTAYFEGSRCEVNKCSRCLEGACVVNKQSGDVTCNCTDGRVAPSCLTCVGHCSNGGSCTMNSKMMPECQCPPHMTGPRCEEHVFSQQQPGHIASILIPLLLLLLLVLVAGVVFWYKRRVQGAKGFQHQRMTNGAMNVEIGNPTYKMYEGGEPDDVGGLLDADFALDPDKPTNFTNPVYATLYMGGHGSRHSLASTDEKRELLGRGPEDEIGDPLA
# Numbering of substitutions follows the chain as printed. Numbers in names are those of the source. Results are given in words; binding and its absence hold for the method and conditions named. Some binding calls cover weakened binding; strength is not graded here. Tags and fused reporters may be left off the sequences shown.
# B1: wild-type TIMP-3 (tissue inhibitor of metalloproteinases-3), C-terminally FLAG-tagged (natural protein, UniProt P35625 24-211, looked up)
# chain: CTCSPSHPQDAFCNSDIVIRAKVVGKKLVKEGPFGTLVYTIKQMKMYRGFTKMPHVQYIHTEASESLCGLKLEVNKYQYLLTGRVYDGKMYTGLCNFVERWDQLTLSQRKGLNYRYHLGCNCKIKSCYYLPCFVTSKNECLWTDMLSNFGYPGYQSKHYACIRQKGGYCSWYRGWAPPDKSIINATDP
# notes: TIMP-3, secreted into the conditioned medium; source: for the screen also transiently transfected, conditioned medium dialyzed against TBS; not shown: FLAG, C-terminal, kept
# B2: TIMP-3 K26A/K45A, C-terminally FLAG-tagged (natural protein, UniProt P35625 24-211, looked up)
# chain: B1 chain with K26A, K45A
# notes: as for B1
# B3: TIMP-3 K42A/K110A, C-terminally FLAG-tagged (natural protein, UniProt P35625 24-211, looked up)
# chain: B1 chain with K42A, K110A
# notes: TIMP-3, secreted into the conditioned medium; The discussion once calls this mutant K45A/K110A; source: for the screen also transiently transfected, conditioned medium dialyzed against TBS; not shown: FLAG, C-terminal, kept
# Biological target: low density lipoprotein receptor-related protein 1 (LRP1), full-length (UniProt Q07954)
# Test: ELISA; LRP1 (5 nM) coated overnight at 4 °C on medium-binding plates; purified TIMP-3 0.4-50 nM in TNC buffer (50 mM Tris-HCl pH 7.5, 150 mM NaCl, 10 mM CaCl2, 0.05% Brij 35) with 5% BSA, 3 h, 25 °C; detected with anti-FLAG M2 and anti-mouse-HRP; both purified
row,Binder,binding
1,B1,binds
2,B2,binds
3,B3,binds weakly
